Reference: the supplement of paper PMC6411743
± gives the standard deviation of the averaged measurements. This is a selection; strong and weak results do not stand in their true shares.

Amino acid sequences for entries named in this document (tags omitted). A change or cut given only in a name is not applied to a line headed by its entry.
UniProt P78406: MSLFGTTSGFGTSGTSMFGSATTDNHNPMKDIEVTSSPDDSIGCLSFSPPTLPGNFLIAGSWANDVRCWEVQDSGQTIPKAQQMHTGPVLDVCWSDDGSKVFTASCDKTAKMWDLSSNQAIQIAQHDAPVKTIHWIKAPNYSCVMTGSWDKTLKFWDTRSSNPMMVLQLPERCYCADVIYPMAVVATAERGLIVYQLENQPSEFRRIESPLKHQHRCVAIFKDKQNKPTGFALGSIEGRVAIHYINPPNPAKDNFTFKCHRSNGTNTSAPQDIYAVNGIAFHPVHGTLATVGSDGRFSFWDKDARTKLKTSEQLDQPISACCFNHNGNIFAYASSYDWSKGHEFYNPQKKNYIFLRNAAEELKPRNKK
UniProt Q9Y587: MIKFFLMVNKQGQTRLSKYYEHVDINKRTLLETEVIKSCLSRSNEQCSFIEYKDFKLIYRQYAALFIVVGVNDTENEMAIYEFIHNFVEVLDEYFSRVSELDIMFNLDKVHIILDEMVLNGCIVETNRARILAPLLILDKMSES
UniProt Q9Y520: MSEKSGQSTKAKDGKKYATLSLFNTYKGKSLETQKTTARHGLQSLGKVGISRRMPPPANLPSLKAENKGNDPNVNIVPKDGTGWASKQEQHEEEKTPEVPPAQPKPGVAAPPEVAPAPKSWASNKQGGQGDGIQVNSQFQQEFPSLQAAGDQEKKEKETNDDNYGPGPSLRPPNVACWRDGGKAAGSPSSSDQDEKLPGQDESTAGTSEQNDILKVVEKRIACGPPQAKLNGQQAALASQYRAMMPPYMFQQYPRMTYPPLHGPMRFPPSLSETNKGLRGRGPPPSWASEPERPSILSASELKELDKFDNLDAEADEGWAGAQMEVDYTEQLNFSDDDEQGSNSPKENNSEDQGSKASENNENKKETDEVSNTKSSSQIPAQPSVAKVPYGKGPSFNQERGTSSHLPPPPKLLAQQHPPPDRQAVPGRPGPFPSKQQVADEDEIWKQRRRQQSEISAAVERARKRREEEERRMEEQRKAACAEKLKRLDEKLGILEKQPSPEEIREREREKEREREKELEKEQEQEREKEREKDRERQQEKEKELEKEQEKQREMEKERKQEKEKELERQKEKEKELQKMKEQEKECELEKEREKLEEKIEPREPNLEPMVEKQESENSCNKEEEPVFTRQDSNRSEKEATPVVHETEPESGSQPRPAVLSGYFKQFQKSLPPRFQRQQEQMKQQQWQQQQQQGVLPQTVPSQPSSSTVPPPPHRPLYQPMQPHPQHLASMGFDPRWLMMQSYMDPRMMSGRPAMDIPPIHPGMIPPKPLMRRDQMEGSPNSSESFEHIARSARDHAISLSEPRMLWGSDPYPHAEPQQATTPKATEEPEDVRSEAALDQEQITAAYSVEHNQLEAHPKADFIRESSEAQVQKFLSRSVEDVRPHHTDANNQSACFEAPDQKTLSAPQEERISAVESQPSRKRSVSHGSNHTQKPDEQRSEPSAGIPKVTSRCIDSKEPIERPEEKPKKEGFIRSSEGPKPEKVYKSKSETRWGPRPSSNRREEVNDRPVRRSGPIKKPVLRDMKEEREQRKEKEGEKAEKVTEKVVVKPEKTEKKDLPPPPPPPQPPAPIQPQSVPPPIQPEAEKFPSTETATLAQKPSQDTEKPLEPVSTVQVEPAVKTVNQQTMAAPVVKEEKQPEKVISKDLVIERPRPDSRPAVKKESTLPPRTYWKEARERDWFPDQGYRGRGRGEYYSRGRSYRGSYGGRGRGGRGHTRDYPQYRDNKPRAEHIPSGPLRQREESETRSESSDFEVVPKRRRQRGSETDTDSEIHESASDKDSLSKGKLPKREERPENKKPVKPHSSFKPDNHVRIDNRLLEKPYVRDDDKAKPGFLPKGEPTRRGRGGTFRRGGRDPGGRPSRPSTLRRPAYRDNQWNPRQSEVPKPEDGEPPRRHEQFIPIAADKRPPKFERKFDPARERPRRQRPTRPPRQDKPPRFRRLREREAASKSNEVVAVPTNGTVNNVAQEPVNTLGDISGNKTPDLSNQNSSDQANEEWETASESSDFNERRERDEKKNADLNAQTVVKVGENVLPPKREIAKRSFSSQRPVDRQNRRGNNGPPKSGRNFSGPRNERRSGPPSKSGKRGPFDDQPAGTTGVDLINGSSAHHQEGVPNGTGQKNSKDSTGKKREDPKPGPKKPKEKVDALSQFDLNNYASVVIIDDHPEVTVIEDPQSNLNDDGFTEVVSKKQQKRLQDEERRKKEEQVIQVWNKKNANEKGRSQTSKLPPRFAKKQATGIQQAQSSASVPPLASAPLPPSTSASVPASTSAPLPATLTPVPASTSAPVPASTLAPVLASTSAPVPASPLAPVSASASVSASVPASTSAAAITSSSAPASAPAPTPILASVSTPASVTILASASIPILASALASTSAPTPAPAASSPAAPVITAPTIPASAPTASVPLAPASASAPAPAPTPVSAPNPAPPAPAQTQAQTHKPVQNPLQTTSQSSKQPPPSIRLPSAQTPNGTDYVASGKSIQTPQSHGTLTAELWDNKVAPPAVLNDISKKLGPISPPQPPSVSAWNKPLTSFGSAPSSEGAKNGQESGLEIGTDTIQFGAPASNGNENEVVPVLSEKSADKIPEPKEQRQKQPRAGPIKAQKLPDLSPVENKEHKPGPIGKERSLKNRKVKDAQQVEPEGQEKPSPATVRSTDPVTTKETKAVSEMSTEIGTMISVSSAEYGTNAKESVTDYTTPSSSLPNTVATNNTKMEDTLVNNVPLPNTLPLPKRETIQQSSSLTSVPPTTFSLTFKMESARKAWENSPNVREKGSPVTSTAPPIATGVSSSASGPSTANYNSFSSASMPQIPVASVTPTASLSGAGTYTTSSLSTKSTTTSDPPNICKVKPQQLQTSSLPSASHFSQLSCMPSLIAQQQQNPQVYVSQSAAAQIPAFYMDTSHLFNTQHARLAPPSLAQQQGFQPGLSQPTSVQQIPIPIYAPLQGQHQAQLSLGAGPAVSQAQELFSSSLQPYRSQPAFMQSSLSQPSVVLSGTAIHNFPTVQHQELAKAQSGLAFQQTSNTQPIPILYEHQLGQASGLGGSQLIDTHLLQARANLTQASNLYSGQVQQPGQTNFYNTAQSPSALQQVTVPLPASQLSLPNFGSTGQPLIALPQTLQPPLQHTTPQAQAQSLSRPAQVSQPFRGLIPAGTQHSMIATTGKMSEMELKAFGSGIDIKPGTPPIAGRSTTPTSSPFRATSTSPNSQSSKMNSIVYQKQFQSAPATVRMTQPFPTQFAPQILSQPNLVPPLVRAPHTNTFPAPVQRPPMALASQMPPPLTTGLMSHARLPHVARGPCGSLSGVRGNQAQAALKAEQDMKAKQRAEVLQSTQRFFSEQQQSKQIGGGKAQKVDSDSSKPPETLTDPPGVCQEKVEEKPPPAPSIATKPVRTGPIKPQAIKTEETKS
UniProt P22234: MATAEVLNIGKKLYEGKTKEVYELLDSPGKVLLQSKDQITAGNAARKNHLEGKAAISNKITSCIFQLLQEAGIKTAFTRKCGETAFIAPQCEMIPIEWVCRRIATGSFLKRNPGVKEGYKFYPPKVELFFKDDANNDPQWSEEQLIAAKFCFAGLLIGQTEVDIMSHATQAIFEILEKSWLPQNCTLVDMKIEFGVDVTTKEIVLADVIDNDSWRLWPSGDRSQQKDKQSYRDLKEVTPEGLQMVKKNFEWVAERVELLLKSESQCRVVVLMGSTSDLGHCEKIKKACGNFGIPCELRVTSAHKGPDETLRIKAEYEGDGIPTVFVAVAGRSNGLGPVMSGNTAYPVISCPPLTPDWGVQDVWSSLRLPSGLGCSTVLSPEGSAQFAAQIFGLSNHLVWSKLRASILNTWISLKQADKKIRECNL
UniProt Q9Y2E5: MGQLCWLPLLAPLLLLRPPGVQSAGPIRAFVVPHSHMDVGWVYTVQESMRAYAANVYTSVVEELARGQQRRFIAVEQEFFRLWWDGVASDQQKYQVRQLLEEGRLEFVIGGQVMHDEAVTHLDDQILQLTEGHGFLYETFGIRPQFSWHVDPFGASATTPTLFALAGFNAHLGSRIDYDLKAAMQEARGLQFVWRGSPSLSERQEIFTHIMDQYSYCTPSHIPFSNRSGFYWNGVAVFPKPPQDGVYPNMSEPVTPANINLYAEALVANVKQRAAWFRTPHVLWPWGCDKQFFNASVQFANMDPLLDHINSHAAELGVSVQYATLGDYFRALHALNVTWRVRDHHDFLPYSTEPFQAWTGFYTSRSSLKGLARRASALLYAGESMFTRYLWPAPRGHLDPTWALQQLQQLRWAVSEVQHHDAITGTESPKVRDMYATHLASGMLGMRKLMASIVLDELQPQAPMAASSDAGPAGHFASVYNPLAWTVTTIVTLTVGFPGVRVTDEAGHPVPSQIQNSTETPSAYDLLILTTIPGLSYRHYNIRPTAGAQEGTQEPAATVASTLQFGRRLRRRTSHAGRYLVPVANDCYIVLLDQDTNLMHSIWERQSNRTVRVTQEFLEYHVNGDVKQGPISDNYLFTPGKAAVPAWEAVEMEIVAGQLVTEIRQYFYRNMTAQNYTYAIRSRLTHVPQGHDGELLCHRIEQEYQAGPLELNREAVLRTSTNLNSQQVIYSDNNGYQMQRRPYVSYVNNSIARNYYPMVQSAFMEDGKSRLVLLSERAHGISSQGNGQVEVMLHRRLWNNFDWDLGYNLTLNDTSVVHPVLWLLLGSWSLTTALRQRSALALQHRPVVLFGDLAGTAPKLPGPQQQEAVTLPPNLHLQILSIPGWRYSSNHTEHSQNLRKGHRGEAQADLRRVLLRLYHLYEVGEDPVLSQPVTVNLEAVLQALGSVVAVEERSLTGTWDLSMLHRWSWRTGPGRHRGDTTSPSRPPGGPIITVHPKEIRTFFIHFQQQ
UniProt Q14203, whole entry: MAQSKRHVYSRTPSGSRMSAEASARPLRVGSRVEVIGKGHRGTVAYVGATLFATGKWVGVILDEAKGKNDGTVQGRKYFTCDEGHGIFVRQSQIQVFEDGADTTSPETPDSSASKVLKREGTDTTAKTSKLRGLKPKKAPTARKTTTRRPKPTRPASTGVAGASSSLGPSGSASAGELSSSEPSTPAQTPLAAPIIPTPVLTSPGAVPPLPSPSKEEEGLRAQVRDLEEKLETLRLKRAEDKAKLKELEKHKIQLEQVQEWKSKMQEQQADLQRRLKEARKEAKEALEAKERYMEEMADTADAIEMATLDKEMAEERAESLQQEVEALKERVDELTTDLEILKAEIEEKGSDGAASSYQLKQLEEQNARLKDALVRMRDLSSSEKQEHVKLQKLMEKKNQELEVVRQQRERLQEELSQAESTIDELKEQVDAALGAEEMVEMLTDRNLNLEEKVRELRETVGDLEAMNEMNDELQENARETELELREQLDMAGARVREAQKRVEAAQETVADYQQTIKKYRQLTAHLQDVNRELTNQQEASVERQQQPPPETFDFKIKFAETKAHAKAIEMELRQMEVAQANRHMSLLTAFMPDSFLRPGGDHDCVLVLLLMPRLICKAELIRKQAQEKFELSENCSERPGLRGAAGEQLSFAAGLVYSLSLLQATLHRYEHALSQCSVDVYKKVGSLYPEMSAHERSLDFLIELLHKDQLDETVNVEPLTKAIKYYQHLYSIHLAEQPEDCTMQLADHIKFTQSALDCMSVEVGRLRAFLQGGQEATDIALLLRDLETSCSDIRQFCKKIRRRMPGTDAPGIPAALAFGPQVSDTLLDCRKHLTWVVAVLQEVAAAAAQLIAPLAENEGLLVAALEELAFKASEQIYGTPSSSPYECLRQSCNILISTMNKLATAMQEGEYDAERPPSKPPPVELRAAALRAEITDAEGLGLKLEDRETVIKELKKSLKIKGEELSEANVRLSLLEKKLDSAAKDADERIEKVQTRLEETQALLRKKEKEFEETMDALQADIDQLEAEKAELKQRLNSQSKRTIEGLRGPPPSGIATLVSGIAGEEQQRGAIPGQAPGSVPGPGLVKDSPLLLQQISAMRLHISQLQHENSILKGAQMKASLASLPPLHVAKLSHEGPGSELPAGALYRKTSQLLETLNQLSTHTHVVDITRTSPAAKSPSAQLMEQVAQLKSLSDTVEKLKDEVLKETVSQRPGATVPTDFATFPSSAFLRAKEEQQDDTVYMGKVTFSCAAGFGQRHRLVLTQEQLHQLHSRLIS
UniProt P24752: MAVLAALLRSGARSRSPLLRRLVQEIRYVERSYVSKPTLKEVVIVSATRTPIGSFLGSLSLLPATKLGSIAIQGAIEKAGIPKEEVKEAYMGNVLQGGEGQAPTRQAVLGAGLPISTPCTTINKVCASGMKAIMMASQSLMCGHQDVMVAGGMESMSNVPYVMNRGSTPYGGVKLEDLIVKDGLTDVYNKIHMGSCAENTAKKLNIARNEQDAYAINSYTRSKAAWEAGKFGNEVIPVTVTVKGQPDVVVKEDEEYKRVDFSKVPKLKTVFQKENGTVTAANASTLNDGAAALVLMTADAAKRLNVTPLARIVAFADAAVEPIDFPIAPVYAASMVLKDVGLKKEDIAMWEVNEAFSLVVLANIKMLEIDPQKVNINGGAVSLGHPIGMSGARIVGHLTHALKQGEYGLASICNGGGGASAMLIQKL

Compound: Nc1ncnc2c1ncn2[C@@H]1O[C@H](COP(=O)(O)OP(=O)(O)OP(=O)(O)O)[C@@H](O)[C@H]1O [adenosine triphosphate]
Assay: NP40-soluble protein abundance relative to vehicle (solubility fold change) (ratio); higher = more soluble protein in presence of ATP
Procedure, shortened: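 Jurkat crude lysate (Dounce-homogenised) was treated with eight concentrations from 0.1 to 10 mM for 10 min at room temperature, then 3 min at 37 °C. It was solubilised with 0.8% NP40 and benzonase (60 min, 4 °C) and ultracentrifuged, and the supernatant was TMT-labelled for LC-MS/MS. Intensities were vsn-normalised, and the value is the fold change against the NP40-processed vehicle per replicate, from three independent experiments.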

Target	NP40-soluble protein abundance (concentration: 1mM)	NP40-soluble protein abundance (concentration: 2mM)	NP40-soluble protein abundance (concentration: 4mM)	NP40-soluble protein abundance (concentration: 6mM)	NP40-soluble protein abundance (concentration: 8mM)	NP40-soluble protein abundance (concentration: 10mM)
E9PQ57 and related entries (UniProt P78406)	1.03 ± 0.05	1.05 ± 0.018	1.05 ± 0.02	1.1 ± 0.056	1.14 ± 0.041	1.17 ± 0.013
F8WET0 and related entries (UniProt Q8IW19)	1.18 ± 0.11	1.21 ± 0.28	1.08 ± 0.21	1.17 ± 0.3	1.05 ± 0.2	1.2 ± 0.12
E9PHV5 and related entries (UniProt P28290)	1.08 ± 0.22	1.16 ± 0.083	1.15 ± 0.054	1.16 ± 0.15	1.12 ± 0.2	1.23 ± 0.12
G3V3X7 and related entries (UniProt Q9Y587)	1.15 ± 0.12	1.08 ± 0.044	1.04 ± 0.11	1.01 ± 0.12	1.06 ± 0.094	1.05 ± 0.13
E7ET49 and related entries (UniProt Q8NCG7)	0.998 ± 0.022	0.966 ± 0.055	1.01 ± 0.081	0.955 ± 0.036	0.922 ± 0.04	0.97 ± 0.057
F5H070 and related entries (UniProt Q9Y4C1)	0.982 ± 0.031	0.991 ± 0.027	0.989 ± 0.031	0.987 ± 0.03	0.965 ± 0.03	0.996 ± 0.039
E7EMM4 and related entries (UniProt Q13510)	0.928 ± 0.066	0.949 ± 0.068	0.924 ± 0.064	0.924 ± 0.043	0.902 ± 0.045	0.929 ± 0.067
E7EPN9 and related entries (UniProt Q9Y520)	1.05 ± 0.094	1.09 ± 0.076	1.15 ± 0.089	1.3 ± 0.14	1.3 ± 0.08	1.42 ± 0.13
F5H8D7 and related entries (UniProt P18887)	1.02 ± 0.023	1.01 ± 0.037	0.957 ± 0.022	1.04 ± 0.018	0.999 ± 0.022	1.049 ± 0.0071
F5GXE4 and related entries (UniProt O95260)	0.983 ± 0.039	0.973 ± 0.061	0.968 ± 0.037	0.987 ± 0.051	0.97 ± 0.053	0.972 ± 0.039
E9PGC8 (UniProt P78559)	0.95 ± 0.067	0.946 ± 0.021	0.929 ± 0.027	0.975 ± 0.035	0.916 ± 0.017	0.9247 ± 0.0049
F5H5G1 and related entries (UniProt Q13449)	0.976 ± 0.1	0.96 ± 0.051	0.981 ± 0.075	0.985 ± 0.14	0.911 ± 0.11	0.894 ± 0.019
G3V529 and related entries (UniProt Q9GZR7)	1 ± 0.04	1.01 ± 0.02	1.01 ± 0.019	1.02 ± 0.012	1.05 ± 0.027	1.08 ± 0.037
E9PB93 and related entries (UniProt O15514)	0.963 ± 0.091	1.03 ± 0.039	1.06 ± 0.017	1 ± 0.043	0.917 ± 0.053	0.885 ± 0.049
E9PKQ5 and related entries (UniProt Q9GZT6)	0.975 ± 0.035	0.9302 ± 0.0066	0.921 ± 0.023	0.972 ± 0.031	0.927 ± 0.036	0.885 ± 0.025
E9PBS1 and related entries (UniProt P22234)	0.963 ± 0.036	0.92 ± 0.036	0.884 ± 0.052	0.936 ± 0.033	0.954 ± 0.058	0.932 ± 0.044
F6VUX8 and related entries (UniProt Q9HC77)	0.867 ± 0.035	0.973 ± 0.052	0.919 ± 0.069	1.05 ± 0.069	0.931 ± 0.023	0.946 ± 0.063
E9PCD7 and related entries (UniProt Q9Y2E5)	0.927 ± 0.063	0.922 ± 0.069	0.902 ± 0.072	0.883 ± 0.053	0.866 ± 0.048	0.887 ± 0.1
F8W689 and related entries (UniProt P48382)	0.968 ± 0.047	0.986 ± 0.037	0.985 ± 0.055	0.995 ± 0.052	0.965 ± 0.028	0.952 ± 0.022
E7EX90 and related entries (UniProt Q14203)	0.974 ± 0.026	0.926 ± 0.033	0.901 ± 0.04	0.953 ± 0.13	0.929 ± 0.059	0.934 ± 0.061
E9PHY5 and related entries (UniProt O43491)	0.982 ± 0.042	0.9719 ± 0.005	0.964 ± 0.01	0.987 ± 0.016	0.941 ± 0.023	0.954 ± 0.029
E9PKF3 and related entries (UniProt P24752)	0.972 ± 0.039	0.945 ± 0.014	0.909 ± 0.021	0.9699 ± 0.0024	0.929 ± 0.017	0.916 ± 0.01
F5H6I7 and related entries (UniProt Q6DD88)	1.01 ± 0.053	0.999 ± 0.068	0.967 ± 0.062	0.971 ± 0.089	0.98 ± 0.045	0.975 ± 0.062
F5H1N7 and related entries (UniProt Q6ZU35)	0.936 ± 0.13	0.94 ± 0.047	1.05 ± 0.062	1.11 ± 0.12	1.05 ± 0.08	1.12 ± 0.14
E7EXA6 and related entries (UniProt Q8WVB6)	1.27 ± 0.046	1.25 ± 0.052	1.27 ± 0.056	1.3 ± 0.082	1.29 ± 0.059	1.31 ± 0.079
F8WCA0 and related entries (UniProt P63027+J3QRU4+L7N2F9+F8WCA0)	0.959 ± 0.14	0.91 ± 0.069	1.04 ± 0.11	0.894 ± 0.066	0.857 ± 0.12	0.805 ± 0.15
G3V3G9 (UniProt P40855)	0.965 ± 0.018	0.997 ± 0.019	0.973 ± 0.01	0.97 ± 0.015	0.972 ± 0.019	0.982 ± 0.022
F6V2D4 and related entries (UniProt O00214)	0.975 ± 0.066	0.999 ± 0.077	1.18 ± 0.35	1.05 ± 0.19	1.08 ± 0.16	1.04 ± 0.16

Fetched one by one from the list above, 2 records:
Target	NP40-soluble protein abundance (concentration: 1mM)	NP40-soluble protein abundance (concentration: 2mM)	NP40-soluble protein abundance (concentration: 4mM)	NP40-soluble protein abundance (concentration: 6mM)	NP40-soluble protein abundance (concentration: 8mM)	NP40-soluble protein abundance (concentration: 10mM)
G3V529 and related entries (UniProt Q9GZR7)	1 ± 0.04	1.01 ± 0.02	1.01 ± 0.019	1.02 ± 0.012	1.05 ± 0.027	1.08 ± 0.037
E7ET49 and related entries (UniProt Q8NCG7)	0.998 ± 0.022	0.966 ± 0.055	1.01 ± 0.081	0.955 ± 0.036	0.922 ± 0.04	0.97 ± 0.057
